From patent US10562878B2

Test system: mice
Experiment: Mouse locomotor activity
Format: in vivo
Conditions: 3 mg/kg PO

CN(C)CC1(c2ccc3ccccc3c2)CCC(C)(O)CC1 (stereo not shown)
Mouse Locomotor Activity Total Distance Traveled ± S.E.M.: 415.9 ± 61.6 and 341.8 ± 78.3

Certain results were filed several times, with different values. They are shown here; other results are not. An entry can have further records. The records of an entry do not match, cause unknown; some may be repeats, others may stem from another dose, organism or construct than stated.
